Test results: article PMC5764988
No constants are given. Whether binding was seen depends on the method and setting.

The chains behind the UniProt entries cited, without tags or fusion partners. Residues count along the entry.
UniProt Q9HVT2, residues 38-1516: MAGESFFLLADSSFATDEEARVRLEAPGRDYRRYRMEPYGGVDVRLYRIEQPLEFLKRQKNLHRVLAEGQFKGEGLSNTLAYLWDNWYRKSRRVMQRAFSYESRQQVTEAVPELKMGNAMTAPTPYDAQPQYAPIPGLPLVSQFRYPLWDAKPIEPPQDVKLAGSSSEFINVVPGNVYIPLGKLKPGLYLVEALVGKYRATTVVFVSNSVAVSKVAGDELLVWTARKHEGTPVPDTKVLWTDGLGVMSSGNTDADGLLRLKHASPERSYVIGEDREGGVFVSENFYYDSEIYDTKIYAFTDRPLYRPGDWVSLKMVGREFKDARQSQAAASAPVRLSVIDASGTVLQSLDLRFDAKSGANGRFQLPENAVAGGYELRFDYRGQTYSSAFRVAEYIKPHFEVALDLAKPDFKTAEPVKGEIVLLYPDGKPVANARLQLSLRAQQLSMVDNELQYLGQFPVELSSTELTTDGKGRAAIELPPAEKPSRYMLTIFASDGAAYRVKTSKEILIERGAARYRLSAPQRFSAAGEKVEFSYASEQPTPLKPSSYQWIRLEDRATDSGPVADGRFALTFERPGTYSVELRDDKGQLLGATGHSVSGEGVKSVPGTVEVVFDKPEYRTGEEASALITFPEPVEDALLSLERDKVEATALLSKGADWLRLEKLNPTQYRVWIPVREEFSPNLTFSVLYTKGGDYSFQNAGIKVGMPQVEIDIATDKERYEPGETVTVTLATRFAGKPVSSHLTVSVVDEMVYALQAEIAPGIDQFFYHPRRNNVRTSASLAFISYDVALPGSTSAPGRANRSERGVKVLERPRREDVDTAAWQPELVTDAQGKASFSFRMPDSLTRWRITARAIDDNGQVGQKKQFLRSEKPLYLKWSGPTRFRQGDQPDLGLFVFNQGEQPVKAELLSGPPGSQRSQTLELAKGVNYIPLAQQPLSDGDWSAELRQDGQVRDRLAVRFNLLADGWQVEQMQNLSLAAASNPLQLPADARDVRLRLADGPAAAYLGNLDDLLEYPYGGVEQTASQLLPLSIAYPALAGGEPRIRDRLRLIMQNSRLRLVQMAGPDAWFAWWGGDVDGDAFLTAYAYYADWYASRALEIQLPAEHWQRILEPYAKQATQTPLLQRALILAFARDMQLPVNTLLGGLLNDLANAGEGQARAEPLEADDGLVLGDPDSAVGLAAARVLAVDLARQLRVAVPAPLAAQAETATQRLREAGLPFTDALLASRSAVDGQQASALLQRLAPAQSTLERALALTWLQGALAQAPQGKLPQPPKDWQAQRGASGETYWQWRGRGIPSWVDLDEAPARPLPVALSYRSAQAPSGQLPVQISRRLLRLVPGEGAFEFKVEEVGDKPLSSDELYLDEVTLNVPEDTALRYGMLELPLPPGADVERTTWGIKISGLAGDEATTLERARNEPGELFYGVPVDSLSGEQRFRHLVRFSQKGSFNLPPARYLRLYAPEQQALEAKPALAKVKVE
UniProt Q9HVT1, residues 22-212: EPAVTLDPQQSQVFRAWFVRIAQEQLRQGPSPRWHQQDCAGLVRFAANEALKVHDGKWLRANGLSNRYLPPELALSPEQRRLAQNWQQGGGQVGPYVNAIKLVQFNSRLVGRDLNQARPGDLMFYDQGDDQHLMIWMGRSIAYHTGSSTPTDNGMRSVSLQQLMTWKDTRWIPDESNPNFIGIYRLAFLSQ

Target: MagD, the Type II alpha-2-macroglobulin from Pseudomonas aeruginosa (Pseudomonas aeruginosa) (UniProt Q9HVT2)
Experiment: SEC; MagD co-expressed with one other Mag protein in E. coli BL21 Star; co-purification by Ni-NTA and gel filtration (Superdex S200, 25 mM HEPES pH 7.5, 100 mM NaCl, 4 °C); both chains His6-tagged

With MagC (from UniProt Q9HVT1 22-212) the binding was “no binding”.
